Several values for one entry are separate records, joined by “and”; a condition that tells them apart may be missing. Equal entries are not always repeated. Some of the results follow. Repeats in this data set agree poorly, so a single value says little.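 HEK293T cells were given each compound shortly before transfection with a reporter in which red mCherry is followed by the SARS-CoV-2 frameshift element and then GFP in the −1 frame, so GFP appears only after frameshifting.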

Drawing on the supplement of paper PMC8256030, this text covers percent viability for 35 compounds.

This experiment has as its system HEK293T. In words: percent viability (nuclei count) relative to control; higher = more viable cells. The conditions noted are these: 10 µM; 24 h.
For the compound `Cc1ccccc1-c1cc(N2CCN(C)CC2)ncc1N(C)C(=O)C(C)(C)c1cc(C(F)(F)F)cc(C(F)(F)F)c1` [netupitant], the percent viability came to 277%.

For `CCOC(=O)CN[C@@H](C(=O)N1CC[C@H]1C(=O)NCc1ccc(/C(N)=N\O)cc1)C1CCCCC1` [ximelagatran], the percent viability was found to be 255%.

Turning to `NC(=O)N[C@@H](CCC(=O)O)C(=O)O`, the percent viability stood at 41.7%.

As to `C[C@H]1C[C@@H]2[C@H]([C@@H](O)C[C@@]3(C)[C@H]2CC[C@]3(O)C(=O)CO)[C@@]2(C)C=CC(=O)C=C12` [methylprednisolone], the percent viability is 239% and 192%.

Consider `CCN(CC)CCOCCOC(=O)C(CC)(CC)c1ccccc1`, for which the percent viability was 67.3%.

Turning to `CN1C(C(=O)Nc2ccccn2)=C(O)c2sccc2S1(=O)=O` [Tenoxicam], the percent viability is 124% and 211%.

With `Cn1c(=O)c2c(ncn2CCCNCC(O)c2cc(O)cc(O)c2)n(C)c1=O` (stereo not given) [reproterol], the percent viability turned out to be 56.1%.

Consider `COc1ccc2cc([C@H](C)C(=O)O)ccc2c1` [naproxen], for which the percent viability was determined as 233%.

For the compound `CCCN(CCC)CCc1cccc2c1CC(=O)N2`, the percent viability was 316%.

Consider `COc1c2ccoc2cc2oc(CO[C@@H]3O[C@H](CO)[C@@H](O)[C@H](O)[C@H]3O)cc(=O)c12` [khelloside], for which the percent viability came out at 106%.

In the case of `Nc1ccn(C[C@@H](CO)OCP(=O)(O)O)c(=O)n1` [Vistide], the percent viability worked out at 206%.

Consider `Oc1c(I)cc(Cl)c2cccnc12` [clioquinol], for which the percent viability was 158%.

Take `Oc1c(Cl)cc(Cl)c(Cl)c1Cc1c(O)c(Cl)cc(Cl)c1Cl` [hexachlorophene]: the percent viability amounted to 73.9%.

On to `NNCCc1ccccc1` [phenelzine], for which the percent viability was 184%.

Turning to `Oc1ccc(Nc2ccnc3cc(Cl)ccc23)cc1CN1CCCC1` [amopyroquine], the percent viability was 565%.

As for `Cc1ccc2nc(C)c(CCN3CCC(C(=O)c4ccc(F)cc4)CC3)c(=O)n2c1` [metrenperone], the percent viability was 68%.

For `O=C(O)Cn1c(=O)n(Cc2ccc(Br)cc2F)c(=O)c2ccc(Cl)cc21` [zenarestat], the percent viability is 82.1%.

With `CN(C)C(=N)NC(=N)N`, the percent viability was found to be 38.1%.

`CO/N=C(\C(=O)N[C@@H]1C(=O)N2C(C(=O)O)=C(CSC(=O)c3ccco3)CS[C@H]12)c1csc(N)n1`: the percent viability is 156%.

On to `CN1C(C(=O)Nc2ccccn2)=C(O)c2ccccc2S1(=O)=O`, for which the percent viability stood at 132%.

`CCCCC(CC)COc1ccc(-c2nc(-c3ccc(OC)cc3)nc(-c3ccc(OCC(CC)CCCC)cc3O)n2)c(O)c1` (stereo not given) [bemotrizinol]: the percent viability amounted to 164%.

Turning to `Cc1cc(NS(=O)(=O)c2ccc(N)cc2)nc(C)n1` [sulfisomidine], the percent viability turned out to be 262%.

As for `CCOC1O[C@H]([C@@H](COCc2ccccc2)OCc2ccccc2)[C@H](OCc2ccccc2)[C@H]1O` (stereo not given in full), the percent viability amounted to 213%.

Turning to `CCOC(=O)[C@H](CCc1ccccc1)N[C@@H](C)C(=O)N1C(=O)N(C)C[C@H]1C(=O)O` [imidapril], the percent viability is 140%.

As to `C[C@H]1O[C@@H](O[C@H]2[C@@H](O)C[C@H](O[C@H]3[C@@H](O)C[C@H](O[C@H]4CC[C@@]5(C)[C@H](CC[C@@H]6[C@@H]5C[C@@H](O)[C@]5(C)[C@@H](C7=CC(=O)OC7)CC[C@]65O)C4)O[C@@H]3C)O[C@@H]2C)C[C@H](O)[C@@H]1O`, the percent viability turned out to be 2.64%.

Turning to `O=C(CCCCCl)NNC(=O)N1Cc2ccccc2Oc2ccc(Cl)cc21` [pinadoline], the percent viability came out at 167%.

In the case of `CC1=C(C(=O)O)N2C(=O)[C@@H](NC(=O)[C@H](N)c3ccc(O)cc3)[C@H]2SC1`, the percent viability was 251%.

Consider `CCC(C)OC(=O)N1CCCCC1CCO` (stereo not given) [icaridin], for which the percent viability came out at 176%.

For `Cn1c(NCCN(CCO)CCCc2ccc([N+](=O)[O-])cc2)cc(=O)n(C)c1=O` [nifekalant], the percent viability turned out to be 113%.

For `CN[C@@H]1[C@H](O[C@H]2[C@H](O[C@H]3[C@H](O)[C@@H](O)[C@H](N=C(N)N)[C@@H](O)[C@@H]3N=C(N)N)O[C@@H](C)[C@]2(O)C=O)O[C@@H](CO)[C@H](O)[C@H]1O`, the percent viability stood at 151%.

Take `O=C([O-])CN(CCN(CC(=O)[O-])CC(=O)[O-])CC(=O)[O-].[Co+2].[Co+2]` [Kelocyanor]: the percent viability worked out at 209%.

For `Cc1c(-c2ccccc2)oc2c(C(=O)OCCN3CCCCC3)cccc2c1=O` [flavoxate], the percent viability was 185%.

In the case of `CN(C)[C@@H]1C(=O)C(C(N)=O)=C(O)[C@@]2(O)C(=O)C3=C(O)c4c(O)cccc4C[C@H]3C[C@@H]12` [sancycline], the percent viability came to 355%.

Regarding `CC(=O)c1ccc(S(=O)(=O)NC(=O)NC2CCCCC2)cc1` [acetohexamide], the percent viability amounted to 284%.

Consider `O=c1c2c(c1=O)N(CCP(=O)(O)O)CCCN2` [perzinfotel], for which the percent viability is 89.2%.
